# Experimental data published in US10080776B2, “Molecular marker for cancer stem cell” (Sapporo Medical University, priority 2008, dated 2018).
# Entries after “also recorded” stand apart in the source; their conditions may differ. Part of at least one peptide drawing is inferred or uncertain, most often the ends. No end group written: not given here.
# Key:
# [1] = tested on: CTLs cocultured with peptide-pulsed T2A24; assay: Human IFNγ ELISPOT assay with SOX2 peptide-induced CTLs; assay type: cell-based; details: overnight
# [2] = tested on: CTLs with peptide-pulsed T2A24 cells; assay: IFN-γ ELISPOT assay with CTLs and or7c1 peptide-pulsed T2A24; assay type: cell-based, human; details: T2A24 pulsed with 5 μg/mL peptide, 40 hours
# [3] = biological target: HLA-A2402 (Homo sapiens, UniProt P04439, D101N/D140Y/D185E/E176V/E190D/F33S/G103R/G107R/I119L/I121M/I306V/K335N/L105A/L180Q/L300P/N151K/N90K/Q86E/Q94H/R106L/R138H/R89G/T104I/T345S/V100E/W191G/Y123F); assay: HLA-A24 peptide binding assay of or7c1-derived peptides; details: T2A24 cells, fluorescence of HLA-A24 antibody
# Procedure: Cell line T2A24 for which HLA-A2402 had been gene-transferred to peptide transporter-deficient T2 cells was used in an assay, and experiment was carried out in the same way as in Experimental Example 16. In this Experimental Example, SL-8 was used as a negative control, and survivin-2B (SEQ ID No: 72) was used as a positive control.
# The peptides below were prepared in the same way as in Experimental Example 26, and a binding assay was carried out.
Sequence,release of IFNγ from T cells (ELISPOT) [1],release of IFN-γ (ELISPOT) [2],binding to HLA-A2402 [3]
"KYRPRRKTKTL [SOX2_109 peptide, KYRPRRKTKTL]",a large quantity of IFNγ was released; also recorded: release of IFNγ was detected,,
"TYAGCLSQIF [93(10), TYAGCLSQIF]",,release of IFN-γ was confirmed,binding to HLA-A2402 was observed
